Results are given in words; binding and its absence hold for the method and conditions named. In cells and extracts the contact can be indirect. These calls come from enrichment with a bait or labelling near it, and not all partners need be listed. Tags and fused reporters may be left off the sequences shown.
Columns and labels:
[1] = molecular target: T1, 3xFlag-tagged Tbl1x (transducin (beta)-like 1 X-linked), construct PiggyBac-CAG-Avi-Tbl1x-3xFlag-ires-Neo (UniProt Q9QXE7); test: affinity purification with mass spectrometry; anti-FLAG M2 agarose on nuclear extract of TSCs stably expressing Tbl1x-3xFlag, after 3 h PD0325901 or 48 h withdrawal of Fgf and CM with CHIR99021; 3 h at 4 C with Benzonase, buffer D (20 mM Hepes pH 7.6, 20% glycerol, 100 mM KCl); compared to an empty vector line, n = 3
T1 sequence: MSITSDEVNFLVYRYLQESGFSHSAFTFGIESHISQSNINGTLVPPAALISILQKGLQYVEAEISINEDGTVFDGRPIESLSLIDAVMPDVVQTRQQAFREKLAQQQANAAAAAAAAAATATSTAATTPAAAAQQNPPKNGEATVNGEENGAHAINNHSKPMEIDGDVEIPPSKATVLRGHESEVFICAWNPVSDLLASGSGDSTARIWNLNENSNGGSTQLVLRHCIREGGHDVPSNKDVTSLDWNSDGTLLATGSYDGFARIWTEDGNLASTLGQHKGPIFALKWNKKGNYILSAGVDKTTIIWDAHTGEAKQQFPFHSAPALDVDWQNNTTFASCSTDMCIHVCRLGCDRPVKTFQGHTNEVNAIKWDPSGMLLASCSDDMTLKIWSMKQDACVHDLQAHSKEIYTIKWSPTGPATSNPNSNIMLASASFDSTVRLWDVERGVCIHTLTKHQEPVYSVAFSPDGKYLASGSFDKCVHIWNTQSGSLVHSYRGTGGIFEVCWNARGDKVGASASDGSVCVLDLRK

[2] = molecular target: T2, 3xFlag-tagged Erf (Ets2 repressor factor), construct PiggyBac-CAG-Avi-Erf-3xFlag-ires-Neo (mouse) (UniProt P70459); test: affinity purification with mass spectrometry; anti-FLAG M2 agarose on nuclear extract of TSCs stably expressing Erf-3xFlag, treated with PD0325901 for 3 h and 24 h; 3 h at 4 C with Benzonase, buffer D (20 mM Hepes pH 7.6, 20% glycerol, 100 mM KCl); compared to an empty vector line, n = 3
T2 sequence: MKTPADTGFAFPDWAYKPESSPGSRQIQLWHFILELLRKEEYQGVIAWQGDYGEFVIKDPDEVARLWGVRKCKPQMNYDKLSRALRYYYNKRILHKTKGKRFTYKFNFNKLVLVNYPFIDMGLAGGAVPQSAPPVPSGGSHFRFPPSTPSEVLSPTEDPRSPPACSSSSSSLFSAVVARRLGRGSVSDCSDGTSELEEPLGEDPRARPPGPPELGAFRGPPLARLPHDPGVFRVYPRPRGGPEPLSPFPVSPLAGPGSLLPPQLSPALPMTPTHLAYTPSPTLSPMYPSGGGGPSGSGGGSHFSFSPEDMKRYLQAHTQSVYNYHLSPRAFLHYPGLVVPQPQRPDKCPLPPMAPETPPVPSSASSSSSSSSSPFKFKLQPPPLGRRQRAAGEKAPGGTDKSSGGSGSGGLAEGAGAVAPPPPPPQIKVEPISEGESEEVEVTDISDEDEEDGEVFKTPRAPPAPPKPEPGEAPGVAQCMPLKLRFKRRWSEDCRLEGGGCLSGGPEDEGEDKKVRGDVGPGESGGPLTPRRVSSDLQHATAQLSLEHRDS

B1: Setd5 (protein, UniProt Q5XJV7 1-1441)
chain: MSIAIPLGVTTPDTSYSDMAAGSDPESVEASPAVNEKSVYSTHNYGTTQRHGCRGLPYATIIPRSDLNGLPSPVEERCGDSPNSEGETVPTWCPCGLSQDGFLLNCDKCRGMSRGKVIRLHRRKQDNISGGDSSATESWDEELSPSTVLYTATQHTPTSITLTVRRTKPKKRKKSPEKGRAAPKTKKIKNSPSEAQNLDENTTEGWENRIRLWTDQYEEAFTNQYSADVQNALEQHLHSNKEFVGKPAILDTINKTELACNNTVIGSQMQLQLGRVTRVQKHRKILRAARDLALDTLIIEYRGKVMLRQQFEVNGHFFKKPYPFVLFYSKFNGVEMCVDARTFGNDARFIRRSCTPNAEVRHMIADGMIHLCIYAVSAITKDAEVTIAFDYEYSNCNYKVDCACHKGNRNCPIQKRNPNAAELPLPPPPSFPTIGAETRRRKARRKELELEQQNEVPEENPDPQPQEVPEKVTVSNEHEEVDNPEEKPEEEEKEEATDDQENSAHSRRTREDRKVEAIMHAFESLEKRKKRRDQPVEQSSSDIEITTSSSEIVVGEETKTAAPESEVSSPVSNVAIPSTPQSTGVNTRRSSHAGDVAAEKPIPKPPPAKPSRPRPKSRISRYRTSSAQRLKRQKQAIAQQAELSQAALEEGGSNNSVTPPEAGNTDSSGENRQLTGSDPTVISVTGSHVNRAASKYPKTKKYLVTEWLNDKAEKQECPVECPLRITTDPTVLATTLNMLPGLIHSPLICTTPKHYIRFGSPFMPERRRRPLLPDGTFSSCKKRWIKQALEEGMTQTSSVPQETRTQHLYQSNETSNSSSICKDNADLLSPLKKWKSRYLMEQNITKLLQPLSPVTPPPPSSGSKSPQLTTPGQTHPGEEECRNGYSLMFSPITSLTTASRSNTPLQFELCHRKDLDLTKVGFPDSSTHSCADRPSLLNCNHPDLASHPSVVPTSEAGFPSRSGDGPQTLLRNSDQAFRTEFNLMYAYSPLNAMPRADGLYRGSPLVGDRKPLHLDGGYCSPAEGFSSRYEHGFMKDLSRGSMSPGGERTCEGVPSAPQNPPQRKKVSLLEYRKRKQEAKENSGGGNDSSQSKSKSSGAGQGSSNSVSDTGAHGVQGSSAGTPSSPHKKFSPSHSSASHLEAVSPSDSRGTSSSHCRPQENISSRWMVPTSVERLREGGSIPKVLRSSVRVAQKGEPSPTWESNITEKESDPADGEGPEPLSSALSKGATVYSPSRYSYQLLQCDSPRTESQSLLQQSSSPFRGHPTQSPGYSYRTTALRPGNPPSHGSSESSLSSTSYPSPAHPVSTDSLAPFTGTPGYYSSQPHSGNSTGSNLPRRSCSSSAASPTPQGPSDSPTSDSVSQSSTGTLSSTSFPQNSRSSLPSDLRTISLPNAGQSAAYQASRVSAVSNSQHYPHRGSGGVHQYRLQPLQGSGVKTQTGLS
For B1, the binding [1] was “binds” and the binding [2] was “binds”.
